Experimental data taken from article PMC7819943, “Rice protein-binding microarrays: a tool to detect cis-acting elements near promoter regions in rice”.
This is one part of the list.

Amino acid sequences for entries named in this document (tags omitted).
UniProt Q0JBA9, entry or part of it: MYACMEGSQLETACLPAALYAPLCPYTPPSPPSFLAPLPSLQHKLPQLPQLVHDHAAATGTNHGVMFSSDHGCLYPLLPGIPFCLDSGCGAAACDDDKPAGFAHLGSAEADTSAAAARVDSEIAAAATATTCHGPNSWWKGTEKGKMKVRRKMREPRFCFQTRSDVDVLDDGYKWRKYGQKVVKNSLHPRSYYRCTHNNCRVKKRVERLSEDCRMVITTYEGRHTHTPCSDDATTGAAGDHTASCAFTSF

Molecular target: OsWRKY34 (Oryza sativa, UniProt Q0JBA9 1-250)
Assay: protein-binding microarray (RPBM); PBS, 2% BSA, 51.3 ng/ul salmon testes DNA, 50 uM zinc acetate, 200 nM TF, 25 C, 1 h; high values mean tight binding
Conditions: protein: recombinant; tags: N-terminal polyhistidine and DsRed monomer fusion (pET32a); label: CyDye5-dUTP incorporated in the synthesized complementary strand; 3' TTTTT single-stranded linker to array surface; dsDNA, one strand shown
How it was run: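 Polyhistidine-tagged DsRed fusions of transcription factors, joined at the N-terminus, were expressed in E. coli BL21-CodonPlus and isolated on Ni–NTA. They were incubated at 200 nM for 1 h at 25 °C on a custom Agilent array, double-stranded and BSA-blocked, in PBS with 2% BSA, salmon testes DNA and 50 µM zinc acetate. The binding signal is per-feature fluorescence intensity (arbitrary units) read on an Axon 4000B scanner after washing.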

Sequence | binding signal
CTCTTTTTTTTTCTTCCACTACGCTCCAAAACTTCTCTCCCGGAGTCACCTAGTGCAG | 8790 fluorescence intensity (a.u.)
AATGTTATTGTATTTTTCTACGAACGTAGTCAAACTTGAACGGAGTCACCTAGTGCAG | 8760 fluorescence intensity (a.u.)
CGCGGCGACGATACCCGCCATTTTCATCTCATTCTCACCACGGAGTCACCTAGTGCAG | 8200 fluorescence intensity (a.u.)
CTTGGCTTTGTGTGTTGCGGCAGATTGGATTCTATTCTAACGGAGTCACCTAGTGCAG | 9160 fluorescence intensity (a.u.)
TCGGAAACGGCAGAGTTTGATTTGGATTGTTTTGTCTTTCCGGAGTCACCTAGTGCAG | 10100 fluorescence intensity (a.u.)
GGCAGCCATCACGTCGTCACCGCGTCATGTCATCACCTACCGGAGTCACCTAGTGCAG | 9560 fluorescence intensity (a.u.)
TCCTCATCAGTCATCATAGTCTCATTTTTTCGCTTATACTCGGAGTCACCTAGTGCAG | 11700 fluorescence intensity (a.u.)
ATCGTTCTCGGCGGCGATCACCTTAGTCAGCCTCTGCTTCCGGAGTCACCTAGTGCAG | 8060 fluorescence intensity (a.u.)
CTGATGACTCACCCTTTTTTGCGTATATTCTCTTTTCCCCCGGAGTCACCTAGTGCAG | 8960 fluorescence intensity (a.u.)
AAAACATGGTACAAATGCATACGCTCACACATGCACACTCCGGAGTCACCTAGTGCAG | 8300 fluorescence intensity (a.u.)
ATTTGCTCGACGTGCTATATATATAAGTGCCCATTTCTTTCGGAGTCACCTAGTGCAG | 8530 fluorescence intensity (a.u.)
AAACCCCTGGCTGCTTCTCAGTGCTTCTTGCTGGCTTCATCGGAGTCACCTAGTGCAG | 9590 fluorescence intensity (a.u.)
GCACACGGAAAACGCCGTCCAGTCCAACCTCCCATTTTTCCGGAGTCACCTAGTGCAG | 15600 fluorescence intensity (a.u.)
CAATGTGTATGTATCTTCTTCGCAGCGAAACAAGTCGTCTCGGAGTCACCTAGTGCAG | 8550 fluorescence intensity (a.u.)
ATACTAATCTCGTGAAATTTCACGTTCTCGCTGTCACAAACGGAGTCACCTAGTGCAG | 12100 fluorescence intensity (a.u.)
ACCACCCATATCCGCTACCATCTTTCTTCTACTGCCTCTGCGGAGTCACCTAGTGCAG | 12500 fluorescence intensity (a.u.)
CCTGATATATCTGTTTTCGACAGCCCATTACTGTTTCTTGCGGAGTCACCTAGTGCAG | 9100 fluorescence intensity (a.u.)
TGTTGAATTCTTGGGGTTGATGTGAATTGATTGAAGTCTCCGGAGTCACCTAGTGCAG | 9590 fluorescence intensity (a.u.)
CCACGTCGATTCGTTGGTCATTGCAAACTCTATATATACTCGGAGTCACCTAGTGCAG | 8360 fluorescence intensity (a.u.)
TTGGCGCGCGGTTGGTGGGGCGGTGGTGGTGGTGGTGCCTCGGAGTCACCTAGTGCAG | 17400 fluorescence intensity (a.u.)
TTGGTCGCATTTCGGGTGGTGGTGGTGGTGGTGGTGGTGGCGGAGTCACCTAGTGCAG | 13200 fluorescence intensity (a.u.)
ACCACCACTCCATCTCCATTGCTGCAAACTACAAGCCGCCCGGAGTCACCTAGTGCAG | 10400 fluorescence intensity (a.u.)
GGACTCTCCTTTCCTTTTCTAATTTTGGATTTTATTTTATCGGAGTCACCTAGTGCAG | 8980 fluorescence intensity (a.u.)

Some of the entries above in a different format:
Sequence	binding signal
AATGTTATTGTATTTTTCTACGAACGTAGTCAAACTTGAACGGAGTCACCTAGTGCAG	8760 fluorescence intensity (a.u.)
CGCGGCGACGATACCCGCCATTTTCATCTCATTCTCACCACGGAGTCACCTAGTGCAG	8200 fluorescence intensity (a.u.)
CTTGGCTTTGTGTGTTGCGGCAGATTGGATTCTATTCTAACGGAGTCACCTAGTGCAG	9160 fluorescence intensity (a.u.)
TCGGAAACGGCAGAGTTTGATTTGGATTGTTTTGTCTTTCCGGAGTCACCTAGTGCAG	10100 fluorescence intensity (a.u.)
GGCAGCCATCACGTCGTCACCGCGTCATGTCATCACCTACCGGAGTCACCTAGTGCAG	9560 fluorescence intensity (a.u.)
TCCTCATCAGTCATCATAGTCTCATTTTTTCGCTTATACTCGGAGTCACCTAGTGCAG	11700 fluorescence intensity (a.u.)
ATCGTTCTCGGCGGCGATCACCTTAGTCAGCCTCTGCTTCCGGAGTCACCTAGTGCAG	8060 fluorescence intensity (a.u.)
